Source: the supplement of paper PMC9135407
“And” between values parts separate entries of the source, which are not always exact repeats. Equal entries are not always repeated. Structures can show the parent of a compound that is named as a salt. ± gives the standard deviation of the averaged measurements. This is one part of the list. Baselines shift from plate to plate; read single values as rough.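 Culture-activated primary human stellate myofibroblasts, where regained lipid droplets signal inactivation. Value: share of Hoechst-counted cells above a per-plate Bodipy cutoff, in duplicate wells, with DMSO negative and nortriptyline positive controls on each plate. Hits: a control-normalized score above the plate's top-tenth-percentile nortriptyline wells, or one of a plate's three best wells. Final well concentrations are not given.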

Test system: primary human hepatic stellate cells (donor 1)
Experiment: percent Bodipy-positive cells; higher = more lipid droplet accumulation
Conditions: 48 h
[1] = library stock concentration: 1 mM
[2] = library stock concentration: 10 mM
[3] = library stock concentration: 3.33 mM
[4] = library stock concentration: 6.4 mM
[5] = library stock concentration: 2 mM
[6] = library stock concentration: 80 uM
[7] = library stock concentration: 400 uM

Question: How did the “percent Bodipy-positive cells” value [1] turn out when `CCCCC[C@@](C)(O)/C=C/[C@@H]1[C@@H](C/C=C\CCCC(=O)O)[C@@H](O)C[C@H]1O` [15(R)-15-methyl Prostaglandin F2.alpha.] was run?
Answer: 15.7 ± 0.89%

Question: For `C#CCN(C)Cc1ccccc1` [Pargyline (hydrochloride)], which “percent Bodipy-positive cells” value [1] is on record?
Answer: 6.47 ± 1.4%

Question: Which “percent Bodipy-positive cells” value does the source give for `C#CCN(C)Cc1ccccc1` [Pargyline hydrochloride] here?
Answer: 28.3 ± 4.9%

Question: What about the “percent Bodipy-positive cells” value [2] of the same compound?
Answer: 13.3 ± 4.3%

Question: Which “percent Bodipy-positive cells” value [1] does the source give for `CCCCCC(=O)/C=C/[C@@H]1[C@@H](C/C=C\CCCC(=O)O)[C@@H](O)C[C@H]1O` [15-keto Prostaglandin F2.alpha.] here?
Answer: 19.4 ± 3%

Question: `CN(C)c1ccc(C(=O)NCCCCCCC(=O)NO)cc1` was tested. Which “percent Bodipy-positive cells” value [3] did it give?
Answer: 55.4 ± 5.5%

Question: And the “percent Bodipy-positive cells” value [2]?
Answer: 71.4 ± 1.8%

Question: `OC(CCN1CCCCC1)(c1ccccc1)C1CC2C=CC1C2` (stereo unspecified) [Biperiden] was tested. Which “percent Bodipy-positive cells” value [4] did it give?
Answer: 55.2 ± 5.5%

Question: What does the source list for `OC(CCN1CCCCC1)(c1ccccc1)C1CC2C=CC1C2` (stereo unspecified) [Biperiden hydrochloride]?
Answer: percent Bodipy-positive cells: 65.4 ± 3.6%; percent Bodipy-positive cells [2]: 82.3 ± 2.3%

Question: With `OC(CCN1CCCCC1)(c1ccccc1)C1CC2C=CC1C2` (stereo unspecified) [Biperiden HCl] as the compound, how does the “percent Bodipy-positive cells” value [3] read?
Answer: 20 ± 3.1%

Question: What about the “percent Bodipy-positive cells” value [2] of the same compound?
Answer: 47.15 ± 0.13%

Question: `Cc1ncc([N+](=O)[O-])n1CCO` [Metronidazole] was tested. Which “percent Bodipy-positive cells” value did it give?
Answer: 29.6 ± 7.3%

Question: What about the “percent Bodipy-positive cells” value [3] of the same compound?
Answer: 6.13 ± 3.8%

Question: What about the “percent Bodipy-positive cells” value [2] of the same compound?
Answer: 15.1% and 13.2%

Question: For `Cc1ncc([N+](=O)[O-])n1CCO`, which “percent Bodipy-positive cells” value [2] is on record?
Answer: 7.14 ± 0.088%

Question: Which results are given for `CCN(CC)CC#CCOC(=O)C(O)(c1ccccc1)C1CCCCC1` (stereo unspecified) [Oxybutynin chloride]?
Answer: percent Bodipy-positive cells: 56.9 ± 6.2%; percent Bodipy-positive cells [3]: 34.6 ± 11%; percent Bodipy-positive cells (library stock concentration: 5.1 mM): 44.6 ± 8.5%; percent Bodipy-positive cells [2]: 62.1 ± 5.3%

Question: For `CC(=O)O/N=C1\C(=O)N(Cc2cc(Cl)ccc2Cl)c2ccc(Cl)cc21`, which “percent Bodipy-positive cells” value [3] is on record?
Answer: 22.4 ± 0.53%

Question: And the “percent Bodipy-positive cells” value [2]?
Answer: 38.8 ± 14%

Question: Which “percent Bodipy-positive cells” value [2] does the source give for `N=C(N)c1ccccc1` [Benzamidine hydrochloride] here?
Answer: 41.7 ± 2%

Question: With `O=C(NCCNCC(O)COc1ccc(O)cc1)N1CCOCC1` (stereo unspecified) [Xamoterol hemifumarate] as the compound, how does the “percent Bodipy-positive cells” value read?
Answer: 8.31 ± 0.53%

Question: What about the “percent Bodipy-positive cells” value (library stock concentration: 5.9 mM) of the same compound?
Answer: 9.76 ± 3.9%

Question: And the “percent Bodipy-positive cells” value [2]?
Answer: 8.87 ± 1.5%

Question: What does the source list for `CCN(Cc1ccncc1)C(=O)C(CO)c1ccccc1` (stereo unspecified) [Tropicamide]?
Answer: percent Bodipy-positive cells: 31.3 ± 4.9%; percent Bodipy-positive cells [3]: 15.8 ± 0.42%; percent Bodipy-positive cells (library stock concentration: 7 mM): 9.33% and 14.7%

Question: `CC(C)N1CCN(c2ccc(OCC3COC(Cn4cncn4)(c4ccc(Cl)cc4Cl)O3)cc2)CC1` (stereo unspecified) [Terconazole] was tested. Which “percent Bodipy-positive cells” value did it give?
Answer: 40.9 ± 1.4%

Question: With `Clc1ccc2c(c1)N=C(N1CCNCC1)c1ccccc1N2` [N-Desmethylclozapine] as the compound, how does the “percent Bodipy-positive cells” value [2] read?
Answer: 97.2 ± 1.6%

Question: `CN1C2CCCC1CC(NC(=O)c1nn(C)c3ccccc13)C2` (stereo unspecified) was tested. Which “percent Bodipy-positive cells” value [2] did it give?
Answer: 15.4 ± 9.4%

Question: With `CN1C2CCCC1CC(NC(=O)c1nn(C)c3ccccc13)C2` (stereo unspecified) [Granisetron hydrochloride] as the compound, how does the “percent Bodipy-positive cells” value [2] read?
Answer: 36.2 ± 2.3%

Question: Which “percent Bodipy-positive cells” value [4] does the source give for `CN1C2CCCC1CC(NC(=O)c1nn(C)c3ccccc13)C2` (stereo unspecified) [Granisetron] here?
Answer: 8.82 ± 3.7%

Question: `COc1cc2c(Oc3ccc4[nH]c(C)cc4c3F)ncnc2cc1OCCCN1CCCC1` [Cediranib] was tested. Which “percent Bodipy-positive cells” value [5] did it give?
Answer: 79.1 ± 1.4%

Question: With `Cc1ccc(C(=O)c2cc(O)c(O)c([N+](=O)[O-])c2)cc1` [Tolcapone] as the compound, how does the “percent Bodipy-positive cells” value [3] read?
Answer: 6.88 ± 2.4%

Question: What about the “percent Bodipy-positive cells” value (library stock concentration: 7.3 mM) of the same compound?
Answer: 11.6 ± 2.4%

Question: And the “percent Bodipy-positive cells” value [2]?
Answer: 44.4 ± 2.7%

Question: Which “percent Bodipy-positive cells” value [3] does the source give for `O=Nc1c(-c2c(O)[nH]c3ccccc23)[nH]c2ccccc12` [Indirubin-3'-monoxime] here?
Answer: 3.82 ± 1%

Question: What about the “percent Bodipy-positive cells” value (library stock concentration: 18 mM) of the same compound?
Answer: 2.87 ± 1%

Question: For `O=Nc1c(-c2c(O)[nH]c3ccccc23)[nH]c2ccccc12` [Indirubin-3'-oxime], which “percent Bodipy-positive cells” value [2] is on record?
Answer: 8% and 4.22%

Question: For `NC[C@H]1O[C@H](O[C@H]2[C@H](O[C@@H]3O[C@H](CO)[C@@H](O)[C@H]3O)[C@@H](O)[C@H](N)C[C@@H]2N)[C@H](N)[C@@H](O)[C@@H]1O` [Ribostamycin sulfate], which “percent Bodipy-positive cells” value [2] is on record?
Answer: 28.3 ± 8.4%

Question: `NC[C@H]1O[C@H](O[C@H]2[C@H](O[C@@H]3O[C@H](CO)[C@@H](O)[C@H]3O)[C@@H](O)[C@H](N)C[C@@H]2N)[C@H](N)[C@@H](O)[C@@H]1O` [Ribostamycin sulfate salt] was tested. Which “percent Bodipy-positive cells” value did it give?
Answer: 7.69 ± 1.6%

Question: Which “percent Bodipy-positive cells” value (library stock concentration: 100 uM) does the source give for `CCCCC/C=C\C[C@@H](O)/C=C/c1cccc(C[C@@H](O)CCCCO)n1` here?
Answer: 9.27 ± 7%

Question: `O=C([O-])c1ccccc1O.[Na+]` [Sodium salicylate] was tested. Which “percent Bodipy-positive cells” value [3] did it give?
Answer: 10.6 ± 4.4%

Question: And the “percent Bodipy-positive cells” value [2]?
Answer: 31.8% and 13.5%

Question: Which “percent Bodipy-positive cells” value does the source give for `COc1ccc2[nH]cc(CCNC(C)=O)c2c1` [Melatonin] here?
Answer: 31.9 ± 11%

Question: What about the “percent Bodipy-positive cells” value [3] of the same compound?
Answer: 8.98 ± 1.4%

Question: What about the “percent Bodipy-positive cells” value (library stock concentration: 8.6 mM) of the same compound?
Answer: 8.96 ± 5.7%

Question: Which “percent Bodipy-positive cells” value [1] does the source give for `C=CC[C@@H]1/C=C(\C)C[C@H](C)C[C@H](OC)[C@H]2O[C@@](O)(C(=O)C(=O)N3CCCC[C@H]3C(=O)O[C@H](/C(C)=C/[C@@H]3CC[C@@H](O)[C@H](OC)C3)[C@H](C)[C@@H](O)CC1=O)[C@H](C)C[C@@H]2OC` here?
Answer: 5.57 ± 0.13%

Question: And the “percent Bodipy-positive cells” value (library stock concentration: 6.2 mM)?
Answer: 19.8 ± 6.7%

Question: What about the “percent Bodipy-positive cells” value [2] of the same compound?
Answer: 6.15 ± 2.1%

Question: Which results are given for `C=CC[C@@H]1/C=C(\C)C[C@H](C)C[C@H](OC)[C@H]2O[C@@](O)(C(=O)C(=O)N3CCCC[C@H]3C(=O)O[C@H](/C(C)=C/[C@@H]3CC[C@@H](O)[C@H](OC)C3)[C@H](C)[C@@H](O)CC1=O)[C@H](C)C[C@@H]2OC` [Tacrolimus (FK506)]?
Answer: percent Bodipy-positive cells [3]: 4.76 ± 2.3%; percent Bodipy-positive cells [2]: 6.72 ± 0.26%

Question: Which results are given for `CN(C)Cc1cccc(N=C(c2ccccc2)c2c(O)[nH]c3cc(C(N)=O)ccc23)c1`?
Answer: percent Bodipy-positive cells [6]: 7.16 ± 3.1%; percent Bodipy-positive cells [7]: 11.5 ± 2.7%; percent Bodipy-positive cells [5]: 9.58 ± 2.8%; percent Bodipy-positive cells [3]: 25 ± 14%; percent Bodipy-positive cells [2]: 76.7% and 84.2%

Question: For `O=C(N/N=C/c1ccc(O)c(O)c1)c1cc2ccccc2cc1O` [Dynasore], which “percent Bodipy-positive cells” value [3] is on record?
Answer: 35.2 ± 12%

Question: And the “percent Bodipy-positive cells” value [2]?
Answer: 23.1 ± 1.3%

Question: How did the “percent Bodipy-positive cells” value [2] turn out when `COC(=O)C1=C(C)NC(C)=C(C(=O)OC)C1c1cccc(NC(=O)NCCCN2CCC(c3cccc(OC)c3)CC2)c1` was run?
Answer: 99.76 ± 0.34%

Question: Which “percent Bodipy-positive cells” value [1] does the source give for `CSC(N)=NCCC[C@@H](N)C(=O)O` [S-methyl-L-Thiocitrulline (hydrochloride)] here?
Answer: 9.42 ± 2.7%

Question: What does the source list for `O=C(O)CCNc1cc(N2CCc3ccccc3CC2)nc(-c2ccccn2)n1`?
Answer: percent Bodipy-positive cells [6]: 34.1 ± 7.8%; percent Bodipy-positive cells [7]: 48.5 ± 2.1%; percent Bodipy-positive cells [5]: 43.1 ± 9.7%; percent Bodipy-positive cells [2]: 30 ± 7%

Question: Which “percent Bodipy-positive cells” value [2] does the source give for `Cc1c(C(=O)N(C)C2CCCCC2)sc2nc3ccc(N)cc3n12` here?
Answer: 5.87 ± 1.2%

Question: Which “percent Bodipy-positive cells” value [6] does the source give for `COc1ccc(COc2ccc(Cc3cnc(N)nc3N)cc2OC)cc1` here?
Answer: 7.57 ± 1.7%

Question: And the “percent Bodipy-positive cells” value [7]?
Answer: 10.7 ± 7.1%

Question: And the “percent Bodipy-positive cells” value [5]?
Answer: 23.2 ± 4.5%

Question: What about the “percent Bodipy-positive cells” value [3] of the same compound?
Answer: 54.7 ± 2.6%

Question: `COc1ccc(COc2ccc(Cc3cnc(N)nc3N)cc2OC)cc1` [cFMS Receptor Tyrosine Kinase Inhibitor] was tested. Which “percent Bodipy-positive cells” value [3] did it give?
Answer: 11.6 ± 2%

Question: For `Cc1cc([N+](=O)[O-])ccc1NS(=O)(=O)c1cc(Cl)ccc1Cl`, which “percent Bodipy-positive cells” value [3] is on record?
Answer: 39.5 ± 13%

Question: And the “percent Bodipy-positive cells” value [2]?
Answer: 52.1 ± 9.4%

Question: Which “percent Bodipy-positive cells” value (library stock concentration: 5.3 mM) does the source give for `COc1ccc(C(=O)NCc2cccnc2)cc1C(=O)NCc1cccnc1` [Picotamide] here?
Answer: 10 ± 1.4%

Question: And the “percent Bodipy-positive cells” value [2]?
Answer: 15.8 ± 1.8%

Question: Which “percent Bodipy-positive cells” value does the source give for `COc1ccc(C(=O)NCc2cccnc2)cc1C(=O)NCc1cccnc1` [Picotamide monohydrate] here?
Answer: 29.3 ± 2.3%

Question: For `CC(C)c1cccc(C(C)C)c1N1C(=O)c2ccc(O)cc2C1=O`, which “percent Bodipy-positive cells” value [2] is on record?
Answer: 61.6 ± 7.8%

Question: With `COCc1c(C(C)C)nc(C(C)C)c(/C=C/[C@@H](O)C[C@@H](O)CC(=O)O)c1-c1ccc(F)cc1` as the compound, how does the “percent Bodipy-positive cells” value [2] read?
Answer: 37.7 ± 2.2%

Question: With `COCc1c(C(C)C)nc(C(C)C)c(/C=C/[C@@H](O)C[C@@H](O)CC(=O)O)c1-c1ccc(F)cc1` [Cerivastatin] as the compound, how does the “percent Bodipy-positive cells” value (library stock concentration: 4.4 mM) read?
Answer: 36.5 ± 13%
